# From patent US20250345468A1, “COMBINATION TREATMENT OF SMALL-CELL LUNG CANCER” (ITM ISOTOPE TECHNOLOGIES MUNICH SE, priority 2022, published 2025)
# At least one peptide structure holds a part that was inferred or is arguable (an end, a ring closure or a residue).
# Experiments:
# H446 cells = test: Cell viability (IC50) assay in H446 SCLC cells; assay type: cell-based, human
# Description: FIG. 1A: H446 and H69 cells treated with increasing concentrations of Rucaparib. […] (IC50 values: ^177Lu-DOTA-TOC: 8.9 kBq, ^177Lu-DOTATOC and 5 μM Rucaparib: 0.9 kBq, ^177LU-DOTATOC and 20 μM Rucaparib; 0.4 kBq)
# FIG. 1A). […] At such concentrations, neither Rucaparib nor ^177Lu-DOTATOC, respectively, alone have any major impact on cell viability. The activity required for ^177Lu-DOTATOC to reduce cell viability to 50% by H446 cells in the combination treatment was reduced by a factor of 10 (5 μM Rucaparib) to 22 (20 μM Rucaparib).
# Further evidence for such a synergistic effect was collected by analogous viability assays employing other PARP inhibitors, such as Olaparib and Talazoparib, in combination with ^177Lu-DOTATOC. The applied PARP inhibitor concentrations for combination therapy was adjusted depending on their individual cytotoxicity. […] That finding was proven in all cell lines.
# H446 SCLC cells = test: Tumor growth delay and survival, H446 xenograft mouse model; assay type: in vivo, athymic nude mice
# H69 SCLC cells = test: Tumor growth delay and survival, H69 xenograft mouse model; details: termination end point 35 days after the onset
compound,measurement,setting,value
"C[C@@H](O)[C@@H]1NC(=O)[C@H](CCCCN)NC(=O)[C@@H](Cc2c[nH]c3ccccc23)NC(=O)[C@H](Cc2ccc(O)cc2)NC(=O)[C@@H](NC(=O)[C@@H](Cc2ccccc2)NC(=O)CN2CCN(CC(=O)O)CCN(CC(=O)O)CCN(CC(=O)O)CC2)CSSC[C@@H](C(=O)N[C@H](CO)[C@@H](C)O)NC1=O [^177Lu-DOTATOC, ^177Lu-DOTA-[Tyr3]-octreotide, metal not drawn]",IC50 (cell viability),H446 cells; 177Lu-DOTATOC alone,8.9 kBq
same,IC50 (cell viability),H446 cells; 177Lu-DOTATOC in combination with 5 μM Rucaparib,0.9 kBq
same,Factor by which the activity required to reduce cell viability to 50% was reduced in the combination treatment,H446 cells; with 5 μM Rucaparib vs alone,10
same,Factor by which the activity required to reduce cell viability to 50% was reduced in the combination treatment,H446 cells; with 20 μM Rucaparib vs alone,22
same,Overall survival,H446 SCLC cells,no significant effect
same,Tumor growth delay,"H446 SCLC cells; PARP inhibitor 10 mg/kg i.p. two cycles of five days, 177Lu-DOTATOC 40 MBq once",no significant delay
same,Animals alive / survived at the end of the experiment,H69 SCLC cells,1 out of 5
